Laboratory results: publication doi:10.1101/325811
Results are given in words; binding and its absence hold for the method and conditions named. Binding seen in cells or lysates may run through a third protein. A yes stands for co-enrichment or nearness to the bait. Other partners may have been found.

By UniProt entry, the sequences of proteins in these tests, tags left out. Where a name states a change or a piece, a line headed by the entry shows the natural chain unless it says otherwise.
UniProt Q99525: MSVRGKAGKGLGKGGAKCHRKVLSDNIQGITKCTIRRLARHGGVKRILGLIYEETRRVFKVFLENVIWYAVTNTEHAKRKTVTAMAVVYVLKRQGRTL
UniProt P06748: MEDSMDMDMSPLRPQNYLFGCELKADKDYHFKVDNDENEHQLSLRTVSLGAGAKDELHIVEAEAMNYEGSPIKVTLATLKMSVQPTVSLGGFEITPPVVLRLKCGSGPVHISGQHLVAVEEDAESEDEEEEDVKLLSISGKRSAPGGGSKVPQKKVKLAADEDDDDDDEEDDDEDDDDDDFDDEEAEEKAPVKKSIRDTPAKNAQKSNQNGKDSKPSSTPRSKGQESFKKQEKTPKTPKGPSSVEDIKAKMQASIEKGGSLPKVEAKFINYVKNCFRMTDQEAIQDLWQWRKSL

Target: FLAG-tagged H4G (human) (UniProt Q99525)
Test: affinity purification with mass spectrometry

binding: binds
Substance: NPM1 (nucleophosmin/B23) (from UniProt P06748 1-294)
